This is an account of results in article doi:10.1101/2023.09.21.558912.

Amino acid sequences for entries named in this document (tags omitted).
UniProt Q92769: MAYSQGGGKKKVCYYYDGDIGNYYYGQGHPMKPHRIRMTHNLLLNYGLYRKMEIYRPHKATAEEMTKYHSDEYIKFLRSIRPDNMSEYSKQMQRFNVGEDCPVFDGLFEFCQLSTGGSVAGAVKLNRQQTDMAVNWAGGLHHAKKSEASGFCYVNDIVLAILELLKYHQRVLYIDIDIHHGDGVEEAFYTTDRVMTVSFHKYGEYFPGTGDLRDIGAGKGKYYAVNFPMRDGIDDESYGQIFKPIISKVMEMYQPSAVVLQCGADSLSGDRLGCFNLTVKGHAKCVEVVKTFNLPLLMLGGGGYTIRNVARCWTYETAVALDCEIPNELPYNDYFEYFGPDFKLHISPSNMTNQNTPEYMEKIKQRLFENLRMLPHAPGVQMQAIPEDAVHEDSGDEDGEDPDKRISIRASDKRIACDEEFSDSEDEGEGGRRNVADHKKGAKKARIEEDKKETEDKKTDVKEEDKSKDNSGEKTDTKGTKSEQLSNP

These are yes or no findings as the source states them, for the method shown. Where a sequence is shown, tags or fusion partners need not be part of it.

This experiment deals with recombinant HDAC2 (UniProt Q92769). Briefly: co-IP.

B1: recombinant SUMO-tagged NARS2 (enzyme, UniProt Q96I59 15-477)
chain: SSAPFPKHKPSAKLSVRDALGAQNASGERIKIQGWIRSVRSQKEVLFLHVNDGSSLESLQVVADSGLDSRELNFGSSVEVQGQLIKSPSKRQNVELKAEKIKVIGNCDAKDFPIKYKERHPLEYLRQYPHFRCRTNVLGSILRIRSEATAAIHSFFKDSGFVHIHTPIITSNDSEGAGELFQLEPSGKLKVPEENFFNVPAFLTVSGQLHLEVMSGAFTQVFTFGPTFRAENSQSRRHLAEFYMIEAEISFVDSLQDLMQVIEELFKATTMMVLSKCPEDVELCHKFIAPGQKDRLEHMLKNNFLIISYTEAVEILKQASQNFTFTPEWGADLRTEHEKYLVKHCGNIPVFVINYPLTLKPFYMRDNEDGPQHTVAAVDLLVPGVGELFGGGLREERYHFLEERLARSGLTEVYQWYLDLRRFGSVPHGGFGMGFERYLQCILGVDNIKDVIPFPRFPHSCLL
Take B1: the binding entry is “no binding”.
